The values below come from paper PMC12147132 (2025).

Construct, isoform or probe ends are uncertain for at least one entry. No signal at the amounts used counts as a negative.

The series has as its system adenosine deaminase (ADA). As to the kind of experiment: ITC. As to conditions: ADA by itself, no adenosine, ADA possibly denatured (Figure S4); circuits run in 20 mM Tris-HCl, 20 mM magnesium chloride; pH and temperature not shown; commercial protein; folded or branched DNA.

“ATAACGCATTTTGTTATGCGGAGGAAGGTAT / ATACCTGGGGGAGTATTAACATGTTCCATCTT [L1+L2 (split adenosine aptamer subunits a1, a2)]”: the binding result is “no binding”.
